Some of the results follow.
test system: T1, CTL2-GFP (C. trachomatis L2/434/Bu, GFP-expressing); parameters: species or system HeLa; Intracellular C. trachomatis growth in HeLa cells, bulk GFP fluorescence relative to DMSO; settings: bulk GFP, single well; 28.5 h, 10 µM; inhibitor
T1 construct: L2/434/Bu, GFP-expressing

Compound | % of control remaining
CC(C)c1ccc(CNC(=O)c2ccc(-c3ccoc3)nc2)cc1 [CBK156292] | 98.9763%
CCC(=O)Nc1nc2c(OC)ccc(C)c2s1 [CBK287616] | 114.781%
O=C(O)c1cccc(NC(=O)c2ccc(CSc3ccc(Br)cc3)cc2)c1 [CBK263226] | 118.126%
O=C(O)CCC(NC(=O)c1ccc(I)cc1)C(=O)O (stereo not drawn) [CBK087614] | 117.05%
CCCCOc1ccc(S(=O)(=O)n2ccc3cc(N4CCNCC4)ccc32)cc1 [CBK001315C] | 42.6967%
O=[N+]([O-])c1cccc(S(=O)(=O)NCCCn2ccnc2)c1 [CBK266676] | 98.7934%
CC1=C(C(=O)OCC(C)C)C(c2ccc(C)cc2)N2C(=O)C(C)SC2=N1 (stereo not drawn) [CBK091646] | 111.133%
COc1ccc(C)cc1C1(CNC(=O)N2CCC(C)(O)C2)CCOCC1 (stereo not drawn) [CBK305452] | 81.465%
Cn1cc(CCNC(=O)Nc2ccc(N3CCCCC3)nc2)cn1 [CBK305656] | 88.5844%
CCOC(=O)C1CCN(CCC(=O)Nc2ccc(F)c(F)c2)CC1 [CBK264252] | 106.415%
CN(Cc1cnn(C)c1)C(=O)c1ccc(Cl)cc1Br [CBK305404] | 110.21%
Cc1c(-c2csc(CC#N)n2)sc2ccccc12 [CBK020828] | 150.671%
O=S(=O)(/N=C(/Nc1nccs1)c1ccccc1)c1cccs1 [CBK268709] | 161.131%
Brc1ccc(OCc2ccccc2)c(CNCCN2CCOCC2)c1 [CBK278171C] | 100%
CC(=O)c1cc(C(=O)N(C)CCOc2ccccc2)cs1 [CBK282560] | 129.085%
Cc1ccc(C(=O)N(Cc2ccncc2)C2CCCCC2)cc1C [CBK085386] | 106.423%
O=C(NCCc1nc2ccccc2[nH]1)c1cccc(Cl)c1 [CBK263514] | 114.466%
COc1ccc(/C=C/C(=O)Nc2cc(S(N)(=O)=O)ccc2C)cc1 [CBK262651] | 100%
COc1ccc(N2CCN(C(=O)CCC(=O)c3cccs3)CC2)cc1 [CBK091413] | 141.056%
O=C(N[C@H]1CCN2C(=O)c3cc(-c4ccc5c(c4)OCO5)ccc3NC(=O)[C@H]12)C1CCCC1 [CBK289333] | 113.975%
CCCc1cc(CNC(=O)C(C)n2ccnc2)on1 (stereo not drawn) [CBK282046] | 111.583%
COc1ccc([C@@]23CC[C@@H](NC(=O)Nc4ccc(Cl)c(F)c4)C[C@@H]2N(C(C)C)CC3)cc1OC [CBK056852T] | 81.5191%
COc1ccc(S(=O)(=O)Nc2ccc(C(=O)O)cc2)cc1[N+](=O)[O-] [CBK266130] | 201.212%
Cc1nc2n(n1)C(c1ccccn1)C1=C(CC(C)CC1=O)N2 (stereo not drawn) [CBK288230] | 114.487%
CCCc1ccc(-c2nccn2CCn2cc(C)nn2)o1 [CBK307688] | 87.9858%
Cc1cccc(S(=O)(=O)Nc2cc(OCCN3CCOCC3)c3occc3c2)c1 [CBK067420C] | 121.328%

Compound | % of control remaining
CC(=O)Nc1ccc(-c2ccc(COC3CCN(C(=O)OC(C)(C)C)CC3)cc2)cc1 [CBK138215] | 51.2222%
CSCC(CSC)OC(=O)Nc1ccc(Cl)cc1 [CBK086154] | 113.884%
Cc1cc(C(=O)CSc2nc3cc(Cl)cnc3[nH]2)c(C)n1C1CC1 [CBK305867] | 112.721%
O=C(c1cccnc1)N1CCN(C2CC(=O)N(c3ccc(F)cc3)C2=O)CC1 (stereo not drawn) [CBK270049] | 142.306%
Cc1nc(COC(=O)c2ccc(C#N)c(C)n2)cs1 [CBK297775] | 122.695%
O=C(C(c1ccccc1)c1ccccc1)N1CCC2(CCNC2)C1 (stereo not drawn) [CBK156729C] | 123.994%
COc1ccc(C)cc1NC(=O)c1cnc2sc(C)cn2c1=O [CBK287714] | 119.203%
Cc1ccc(NS(=O)(=O)c2c(Br)sc3ccnc(N4CCN(C)CC4)c23)cc1 [CBK034654C] | 92.8935%
CC(=O)c1nnnn1C(C)(C)Cc1ccccc1 [CBK022088] | 96.8595%
CC(C)(C)C1=CC2=NC3(CCCCCCCCCCC3)[C@@H]3C[C@@H](O)[C@@H](O)[C@@H]3N2O1 [CBK303254] | 98.8887%
COc1ccc(C(C)C)cc1-c1cncc(N2CCCCC2CCO)n1 (stereo not drawn) [CBK037897] | 114.077%
COC(=O)c1cccn2cc(CN3CCOCC3(C)C)nc12 [CBK304879] | 84.0161%
CC1CCCN(CC(C)NC(=O)Cn2cnc3ccc(F)cc3c2=O)C1 (stereo not drawn) [CBK305953] | 122.382%
Cc1cc(COc2nc3ccccc3nc2NCCCCO)no1 [CBK173985] | 128.463%
O=C(c1c[nH]c2ccccc12)N1CCc2ccccc2C1 [CBK200331] | 106.916%
O=C(N/N=C\c1cccs1)c1n[nH]c2c1CCCC2 [CBK261667] | 114.526%
COc1ccc(-c2cc(Nc3ccccc3)ncn2)cc1 [CBK090911] | 121.577%
CC1=CC[C@H]2COC(CN3CCOC3C(C)C)[C@@H]1C2 (stereo partly drawn) [CBK019189] | 87.8633%
Nc1ncc(-c2cc(C(F)(F)F)cc(C(F)(F)F)c2)nc1N1CCC[C@@H]1CO [CBK063501] | 136.691%
CCOC(=O)c1sc(NC(=O)C2CCCCC2)nc1C [CBK057893] | 144.398%
CCN1CC2(CCC1=O)CCN(c1ccnc(OC)c1C#N)CC2 [CBK307018] | 112.876%
COc1ccc(OC)c(NS(=O)(=O)c2ccc(C(=O)O)cc2)c1 [CBK267603] | 109.608%
Cc1ccc(C2CCCN2C(=O)c2ccc(=O)n(CC(=O)NC3CCCCC3)c2)cc1C (stereo not drawn) [CBK285982] | 122.191%
c1csc(CNc2nccnc2-c2ccoc2)c1 [CBK036599] | 165.396%
CC(=O)N1CCC[C@H]2NC(=O)CNC(=O)C3(C/C=C/C[C@H]21)CCN(C(=O)c1ccon1)CC3 [CBK292057] | 102.273%

A different layout for part of the listing above:
Compound,% of control remaining
O=C(C(c1ccccc1)c1ccccc1)N1CCC2(CCNC2)C1 (stereo not drawn) [CBK156729C],123.994%
COc1ccc(C)cc1NC(=O)c1cnc2sc(C)cn2c1=O [CBK287714],119.203%
